Article PMC5103180

Chains of the proteins cited; added tags and fusions are not shown.
UniProt P16157: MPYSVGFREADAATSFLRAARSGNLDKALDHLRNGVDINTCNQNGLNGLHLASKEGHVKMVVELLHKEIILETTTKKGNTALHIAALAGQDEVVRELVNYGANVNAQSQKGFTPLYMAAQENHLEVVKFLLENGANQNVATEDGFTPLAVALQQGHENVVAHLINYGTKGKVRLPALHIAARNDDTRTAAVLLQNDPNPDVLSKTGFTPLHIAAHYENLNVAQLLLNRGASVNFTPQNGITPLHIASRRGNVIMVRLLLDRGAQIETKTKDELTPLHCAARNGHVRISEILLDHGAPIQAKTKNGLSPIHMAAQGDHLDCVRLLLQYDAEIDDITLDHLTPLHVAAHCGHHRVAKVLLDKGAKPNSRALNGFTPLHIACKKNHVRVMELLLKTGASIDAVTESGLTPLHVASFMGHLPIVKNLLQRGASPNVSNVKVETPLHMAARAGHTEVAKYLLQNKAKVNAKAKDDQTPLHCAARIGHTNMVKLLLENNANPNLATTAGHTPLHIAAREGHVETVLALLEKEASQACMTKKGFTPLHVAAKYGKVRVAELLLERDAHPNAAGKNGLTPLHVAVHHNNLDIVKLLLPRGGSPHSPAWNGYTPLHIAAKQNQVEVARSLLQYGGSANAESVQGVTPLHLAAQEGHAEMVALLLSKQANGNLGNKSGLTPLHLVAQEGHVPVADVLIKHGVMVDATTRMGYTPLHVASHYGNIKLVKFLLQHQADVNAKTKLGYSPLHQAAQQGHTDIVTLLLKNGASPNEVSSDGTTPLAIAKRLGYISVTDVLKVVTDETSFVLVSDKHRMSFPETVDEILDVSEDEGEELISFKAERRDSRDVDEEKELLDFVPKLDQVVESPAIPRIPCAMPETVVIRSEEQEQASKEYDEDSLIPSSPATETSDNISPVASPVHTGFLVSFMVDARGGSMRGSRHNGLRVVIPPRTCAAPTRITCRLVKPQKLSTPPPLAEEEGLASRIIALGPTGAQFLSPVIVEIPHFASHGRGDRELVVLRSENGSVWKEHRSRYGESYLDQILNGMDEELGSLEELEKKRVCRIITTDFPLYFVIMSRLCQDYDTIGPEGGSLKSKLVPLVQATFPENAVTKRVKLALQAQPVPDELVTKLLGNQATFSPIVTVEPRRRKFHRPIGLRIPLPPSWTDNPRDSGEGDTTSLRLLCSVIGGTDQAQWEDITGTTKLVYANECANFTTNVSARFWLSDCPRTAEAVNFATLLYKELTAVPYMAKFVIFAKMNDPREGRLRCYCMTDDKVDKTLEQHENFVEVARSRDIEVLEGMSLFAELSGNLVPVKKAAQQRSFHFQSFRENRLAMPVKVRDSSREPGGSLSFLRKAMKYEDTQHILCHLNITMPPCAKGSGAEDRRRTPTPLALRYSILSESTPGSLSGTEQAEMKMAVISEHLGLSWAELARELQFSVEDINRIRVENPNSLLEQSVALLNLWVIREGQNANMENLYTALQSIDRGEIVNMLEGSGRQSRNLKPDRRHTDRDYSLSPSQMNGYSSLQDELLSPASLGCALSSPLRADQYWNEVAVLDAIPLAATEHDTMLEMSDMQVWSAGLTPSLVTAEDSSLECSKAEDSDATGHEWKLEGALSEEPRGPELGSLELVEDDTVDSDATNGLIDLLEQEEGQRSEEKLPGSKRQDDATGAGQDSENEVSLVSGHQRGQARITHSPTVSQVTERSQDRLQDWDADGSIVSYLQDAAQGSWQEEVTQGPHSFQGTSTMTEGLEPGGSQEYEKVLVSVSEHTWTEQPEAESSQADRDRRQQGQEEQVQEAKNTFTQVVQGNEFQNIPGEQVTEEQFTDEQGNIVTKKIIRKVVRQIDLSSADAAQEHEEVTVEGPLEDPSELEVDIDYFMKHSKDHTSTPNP
UniProt P11277: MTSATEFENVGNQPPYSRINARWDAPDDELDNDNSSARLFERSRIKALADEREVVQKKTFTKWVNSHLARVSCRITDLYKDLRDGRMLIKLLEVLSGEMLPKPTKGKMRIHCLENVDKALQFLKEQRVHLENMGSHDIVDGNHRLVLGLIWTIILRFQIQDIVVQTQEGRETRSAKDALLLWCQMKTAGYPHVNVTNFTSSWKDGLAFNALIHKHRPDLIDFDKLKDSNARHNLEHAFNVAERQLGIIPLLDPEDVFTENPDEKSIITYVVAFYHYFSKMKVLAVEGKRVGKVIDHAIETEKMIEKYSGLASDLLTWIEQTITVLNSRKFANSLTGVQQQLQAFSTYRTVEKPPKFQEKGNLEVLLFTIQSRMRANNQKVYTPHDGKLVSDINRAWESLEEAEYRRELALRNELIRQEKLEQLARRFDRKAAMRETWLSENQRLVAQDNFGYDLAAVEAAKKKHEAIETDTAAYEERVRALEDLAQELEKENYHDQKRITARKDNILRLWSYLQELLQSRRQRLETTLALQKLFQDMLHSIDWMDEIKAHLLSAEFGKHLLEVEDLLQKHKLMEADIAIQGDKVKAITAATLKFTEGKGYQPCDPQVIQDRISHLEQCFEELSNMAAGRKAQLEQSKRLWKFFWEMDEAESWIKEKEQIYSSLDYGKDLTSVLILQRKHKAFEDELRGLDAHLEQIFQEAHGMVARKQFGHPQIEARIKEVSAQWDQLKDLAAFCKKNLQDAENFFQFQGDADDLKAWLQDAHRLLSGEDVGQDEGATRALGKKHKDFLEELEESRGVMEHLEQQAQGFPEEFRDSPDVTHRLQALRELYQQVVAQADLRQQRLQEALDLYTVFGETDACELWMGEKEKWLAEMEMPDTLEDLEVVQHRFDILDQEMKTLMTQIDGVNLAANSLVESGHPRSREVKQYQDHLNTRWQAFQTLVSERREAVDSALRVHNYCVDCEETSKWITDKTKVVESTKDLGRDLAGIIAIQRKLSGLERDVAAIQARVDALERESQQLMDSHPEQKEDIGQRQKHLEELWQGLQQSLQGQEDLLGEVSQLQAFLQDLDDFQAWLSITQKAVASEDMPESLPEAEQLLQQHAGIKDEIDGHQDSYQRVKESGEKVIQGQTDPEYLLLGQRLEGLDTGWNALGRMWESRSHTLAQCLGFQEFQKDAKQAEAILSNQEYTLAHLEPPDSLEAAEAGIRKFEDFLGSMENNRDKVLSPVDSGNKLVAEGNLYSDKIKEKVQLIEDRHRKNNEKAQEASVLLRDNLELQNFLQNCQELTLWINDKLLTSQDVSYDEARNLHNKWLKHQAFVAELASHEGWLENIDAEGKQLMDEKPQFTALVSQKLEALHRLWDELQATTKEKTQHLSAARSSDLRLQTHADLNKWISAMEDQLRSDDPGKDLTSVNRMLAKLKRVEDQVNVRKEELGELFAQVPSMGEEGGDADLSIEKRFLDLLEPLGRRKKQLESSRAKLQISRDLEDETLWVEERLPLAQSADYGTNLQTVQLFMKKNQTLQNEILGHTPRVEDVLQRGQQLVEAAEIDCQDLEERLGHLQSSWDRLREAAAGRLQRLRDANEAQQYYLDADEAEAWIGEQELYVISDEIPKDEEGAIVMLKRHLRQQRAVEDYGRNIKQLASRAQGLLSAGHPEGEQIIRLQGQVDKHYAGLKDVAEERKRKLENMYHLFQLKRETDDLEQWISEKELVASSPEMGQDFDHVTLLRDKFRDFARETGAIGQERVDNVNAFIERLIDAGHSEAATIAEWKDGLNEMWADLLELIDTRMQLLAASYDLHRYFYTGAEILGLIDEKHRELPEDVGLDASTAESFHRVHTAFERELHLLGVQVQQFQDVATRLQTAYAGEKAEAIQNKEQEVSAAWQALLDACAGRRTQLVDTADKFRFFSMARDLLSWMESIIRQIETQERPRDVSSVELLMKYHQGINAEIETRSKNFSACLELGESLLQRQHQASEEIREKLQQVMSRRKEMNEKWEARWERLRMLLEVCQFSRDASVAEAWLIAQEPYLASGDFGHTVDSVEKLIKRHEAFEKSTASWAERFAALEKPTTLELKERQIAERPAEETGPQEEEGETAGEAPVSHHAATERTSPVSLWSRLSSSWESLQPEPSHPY
UniProt P02730: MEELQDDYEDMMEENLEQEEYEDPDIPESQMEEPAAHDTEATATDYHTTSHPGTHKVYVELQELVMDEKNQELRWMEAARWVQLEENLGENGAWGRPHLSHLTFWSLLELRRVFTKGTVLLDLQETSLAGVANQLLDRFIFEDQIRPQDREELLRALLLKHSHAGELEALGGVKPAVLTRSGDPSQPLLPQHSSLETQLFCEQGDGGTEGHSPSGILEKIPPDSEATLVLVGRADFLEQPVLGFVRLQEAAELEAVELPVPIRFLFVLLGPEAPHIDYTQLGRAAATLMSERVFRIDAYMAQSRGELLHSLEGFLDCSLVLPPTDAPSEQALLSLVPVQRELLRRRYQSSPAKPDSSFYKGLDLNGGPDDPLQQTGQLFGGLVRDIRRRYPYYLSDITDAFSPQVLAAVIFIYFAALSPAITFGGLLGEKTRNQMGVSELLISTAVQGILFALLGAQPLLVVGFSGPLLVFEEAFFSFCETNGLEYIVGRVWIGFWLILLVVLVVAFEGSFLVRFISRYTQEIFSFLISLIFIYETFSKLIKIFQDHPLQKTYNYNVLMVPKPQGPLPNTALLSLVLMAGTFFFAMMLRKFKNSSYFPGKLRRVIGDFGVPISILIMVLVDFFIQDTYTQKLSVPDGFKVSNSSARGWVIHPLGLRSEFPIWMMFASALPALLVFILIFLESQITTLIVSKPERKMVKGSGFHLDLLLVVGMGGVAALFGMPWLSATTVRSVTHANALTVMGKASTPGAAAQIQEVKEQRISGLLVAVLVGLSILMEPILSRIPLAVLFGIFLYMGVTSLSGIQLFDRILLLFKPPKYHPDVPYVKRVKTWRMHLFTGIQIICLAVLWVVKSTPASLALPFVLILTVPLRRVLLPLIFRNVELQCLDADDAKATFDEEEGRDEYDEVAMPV

Each substance was assayed against T1, human band 4.2 (human) (UniProt P16452) (assay: affinity purification with mass spectrometry; reverse Co-IP from 3D7 wild-type parasite lysate, cross-linked in 1% formaldehyde; α-band 4.2 antibodies cross-linked with BS3 to Dynabeads Protein G; LC-MS/MS of the eluate, performed twice).
T1 sequence: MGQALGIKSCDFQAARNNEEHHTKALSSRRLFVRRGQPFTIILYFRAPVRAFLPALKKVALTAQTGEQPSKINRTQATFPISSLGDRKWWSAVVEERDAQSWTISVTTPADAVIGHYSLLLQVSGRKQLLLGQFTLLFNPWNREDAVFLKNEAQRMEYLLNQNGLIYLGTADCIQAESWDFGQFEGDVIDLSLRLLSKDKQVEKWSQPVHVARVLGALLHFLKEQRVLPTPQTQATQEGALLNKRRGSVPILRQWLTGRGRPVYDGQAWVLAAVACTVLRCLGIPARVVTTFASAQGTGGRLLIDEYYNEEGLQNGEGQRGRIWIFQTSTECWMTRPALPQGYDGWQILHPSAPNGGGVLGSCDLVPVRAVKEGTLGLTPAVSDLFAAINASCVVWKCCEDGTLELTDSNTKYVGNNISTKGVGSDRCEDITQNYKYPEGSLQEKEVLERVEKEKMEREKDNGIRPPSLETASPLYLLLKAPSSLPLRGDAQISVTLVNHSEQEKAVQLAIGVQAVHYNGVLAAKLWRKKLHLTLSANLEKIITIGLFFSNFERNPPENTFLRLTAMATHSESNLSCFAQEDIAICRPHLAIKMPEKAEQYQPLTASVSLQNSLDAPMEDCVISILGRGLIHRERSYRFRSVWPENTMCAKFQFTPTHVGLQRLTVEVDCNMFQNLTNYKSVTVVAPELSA

Substance	binding
PFE1605w (endogenous, untagged)	binds
ankyrin (from UniProt P16157 1-1881)	binds
β‐chain of spectrin (from UniProt P11277 1-2137)	binds

Second part, the substance after the results:

binding	Substance
binds	human band 3 (endogenous) (from UniProt P02730 1-911)
binds	α‐chain of spectrin (from UniProt P02549 1-2419)

Results are given in words; binding and its absence hold for the method and conditions named. Binding seen in cells or lysates may run through a third protein. These calls come from enrichment with a bait or labelling near it, and not all partners need be listed.
